Measured values taken from article doi:10.1101/351056.
Results are given in words; binding and its absence hold for the method and conditions named. For part of these data: In cells and extracts the contact can be indirect. Some entries that bind do so weakly or less than the wild type. Sequences can lack the tags named with a protein. Each block holds one molecule with its values, some of them ahead of it.

Protein sequences, listed by entry. Tags and fused reporters are not part of them. Lines headed by an entry give the natural chain unless they say otherwise; changes in a name come on top. Residues count along the entry.
UniProt O22476, 24-1196: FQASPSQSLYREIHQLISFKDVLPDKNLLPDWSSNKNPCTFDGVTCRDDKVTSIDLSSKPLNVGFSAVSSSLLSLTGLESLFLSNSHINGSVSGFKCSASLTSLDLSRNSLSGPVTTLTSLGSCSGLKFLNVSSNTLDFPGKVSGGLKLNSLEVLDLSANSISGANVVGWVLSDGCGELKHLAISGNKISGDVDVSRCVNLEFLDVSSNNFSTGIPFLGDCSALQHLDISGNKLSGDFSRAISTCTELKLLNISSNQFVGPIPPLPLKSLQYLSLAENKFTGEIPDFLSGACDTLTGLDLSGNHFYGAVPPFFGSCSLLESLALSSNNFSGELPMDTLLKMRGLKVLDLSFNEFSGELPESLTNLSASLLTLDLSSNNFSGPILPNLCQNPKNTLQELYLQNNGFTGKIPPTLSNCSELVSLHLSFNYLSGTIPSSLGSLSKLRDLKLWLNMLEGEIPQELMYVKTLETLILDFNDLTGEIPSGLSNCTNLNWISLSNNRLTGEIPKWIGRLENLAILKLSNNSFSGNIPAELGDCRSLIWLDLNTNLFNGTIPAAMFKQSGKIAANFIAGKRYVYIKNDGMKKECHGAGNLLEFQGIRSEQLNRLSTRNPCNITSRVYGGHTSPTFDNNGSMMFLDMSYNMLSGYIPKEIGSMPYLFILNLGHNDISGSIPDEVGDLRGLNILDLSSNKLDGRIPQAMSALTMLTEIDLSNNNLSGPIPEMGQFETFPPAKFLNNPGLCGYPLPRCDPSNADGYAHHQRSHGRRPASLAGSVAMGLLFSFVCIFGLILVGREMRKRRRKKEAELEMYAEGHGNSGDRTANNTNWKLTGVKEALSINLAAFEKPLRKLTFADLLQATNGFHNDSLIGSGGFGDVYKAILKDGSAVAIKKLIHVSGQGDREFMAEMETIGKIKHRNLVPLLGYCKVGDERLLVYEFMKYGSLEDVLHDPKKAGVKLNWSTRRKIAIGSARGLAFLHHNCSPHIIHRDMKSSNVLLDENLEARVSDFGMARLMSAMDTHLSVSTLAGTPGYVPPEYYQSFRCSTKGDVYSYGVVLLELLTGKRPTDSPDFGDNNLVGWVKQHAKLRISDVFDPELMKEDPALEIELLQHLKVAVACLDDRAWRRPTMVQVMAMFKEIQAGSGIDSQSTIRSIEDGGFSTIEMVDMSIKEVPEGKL
UniProt O22476, 814-1196: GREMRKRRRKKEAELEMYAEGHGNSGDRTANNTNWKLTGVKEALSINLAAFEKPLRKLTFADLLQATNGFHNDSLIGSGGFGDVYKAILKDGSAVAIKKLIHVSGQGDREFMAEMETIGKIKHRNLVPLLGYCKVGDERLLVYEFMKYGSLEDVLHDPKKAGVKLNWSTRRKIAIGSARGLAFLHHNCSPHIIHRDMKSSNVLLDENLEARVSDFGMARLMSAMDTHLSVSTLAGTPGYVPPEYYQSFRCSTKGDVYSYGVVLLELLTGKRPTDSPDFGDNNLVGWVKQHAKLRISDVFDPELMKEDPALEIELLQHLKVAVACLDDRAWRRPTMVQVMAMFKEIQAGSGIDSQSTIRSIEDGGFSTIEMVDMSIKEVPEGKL
UniProt Q9LR78, whole entry: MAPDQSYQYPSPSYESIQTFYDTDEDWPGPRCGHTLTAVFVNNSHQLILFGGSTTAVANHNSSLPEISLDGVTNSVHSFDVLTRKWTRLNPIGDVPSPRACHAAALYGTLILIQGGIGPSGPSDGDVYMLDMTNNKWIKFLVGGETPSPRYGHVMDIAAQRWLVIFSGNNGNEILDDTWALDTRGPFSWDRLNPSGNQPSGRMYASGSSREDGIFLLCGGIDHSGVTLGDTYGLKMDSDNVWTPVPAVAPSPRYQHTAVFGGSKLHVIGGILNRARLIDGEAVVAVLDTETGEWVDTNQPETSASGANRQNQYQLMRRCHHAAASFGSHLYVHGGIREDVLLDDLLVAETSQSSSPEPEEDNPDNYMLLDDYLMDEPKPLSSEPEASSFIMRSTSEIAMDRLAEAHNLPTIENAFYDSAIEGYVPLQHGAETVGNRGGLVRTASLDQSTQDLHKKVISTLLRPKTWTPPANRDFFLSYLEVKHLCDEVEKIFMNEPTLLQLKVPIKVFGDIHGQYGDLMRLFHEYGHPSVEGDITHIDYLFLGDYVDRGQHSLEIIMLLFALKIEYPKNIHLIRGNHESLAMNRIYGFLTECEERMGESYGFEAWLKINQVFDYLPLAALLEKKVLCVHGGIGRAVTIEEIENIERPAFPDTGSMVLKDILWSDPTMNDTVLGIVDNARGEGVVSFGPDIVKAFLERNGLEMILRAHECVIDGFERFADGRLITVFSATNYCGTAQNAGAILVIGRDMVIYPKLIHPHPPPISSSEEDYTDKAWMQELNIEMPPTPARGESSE

Experiments:
[1] = target: T1, GFP-TTL3ΔN2 (Arabidopsis thaliana) (UniProt Q9SIN1); assay: co-IP
T1 sequence: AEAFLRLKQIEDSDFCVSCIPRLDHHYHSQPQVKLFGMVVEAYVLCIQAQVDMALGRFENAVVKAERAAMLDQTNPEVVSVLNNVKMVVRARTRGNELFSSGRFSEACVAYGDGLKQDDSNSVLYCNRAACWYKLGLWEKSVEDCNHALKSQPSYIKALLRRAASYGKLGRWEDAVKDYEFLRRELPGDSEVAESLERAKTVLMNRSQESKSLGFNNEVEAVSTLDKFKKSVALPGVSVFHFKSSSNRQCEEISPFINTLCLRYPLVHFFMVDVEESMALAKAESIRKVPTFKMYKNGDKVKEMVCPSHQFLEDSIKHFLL

[2] = target: T2, GFP-TTL3ΔC2 (Arabidopsis thaliana) (UniProt Q9SIN1); assay: co-IP
T2 sequence: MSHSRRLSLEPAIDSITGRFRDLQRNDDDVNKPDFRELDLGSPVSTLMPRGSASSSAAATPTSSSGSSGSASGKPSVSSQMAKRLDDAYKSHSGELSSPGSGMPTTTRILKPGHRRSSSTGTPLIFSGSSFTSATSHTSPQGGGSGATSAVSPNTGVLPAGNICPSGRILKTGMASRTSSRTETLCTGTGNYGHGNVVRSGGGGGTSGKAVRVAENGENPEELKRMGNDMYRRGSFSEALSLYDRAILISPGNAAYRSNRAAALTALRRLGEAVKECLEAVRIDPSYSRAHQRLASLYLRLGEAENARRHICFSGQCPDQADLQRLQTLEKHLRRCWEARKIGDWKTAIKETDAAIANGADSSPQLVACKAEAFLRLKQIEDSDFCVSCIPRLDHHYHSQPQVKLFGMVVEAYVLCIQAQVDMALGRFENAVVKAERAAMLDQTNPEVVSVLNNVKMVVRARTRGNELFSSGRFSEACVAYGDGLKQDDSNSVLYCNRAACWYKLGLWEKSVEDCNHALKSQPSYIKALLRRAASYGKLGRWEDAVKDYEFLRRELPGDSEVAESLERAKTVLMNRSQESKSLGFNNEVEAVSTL

[3] = target: T3, GFP-TTL3ΔN1 (Arabidopsis thaliana) (UniProt Q9SIN1); assay: co-IP
T3 sequence: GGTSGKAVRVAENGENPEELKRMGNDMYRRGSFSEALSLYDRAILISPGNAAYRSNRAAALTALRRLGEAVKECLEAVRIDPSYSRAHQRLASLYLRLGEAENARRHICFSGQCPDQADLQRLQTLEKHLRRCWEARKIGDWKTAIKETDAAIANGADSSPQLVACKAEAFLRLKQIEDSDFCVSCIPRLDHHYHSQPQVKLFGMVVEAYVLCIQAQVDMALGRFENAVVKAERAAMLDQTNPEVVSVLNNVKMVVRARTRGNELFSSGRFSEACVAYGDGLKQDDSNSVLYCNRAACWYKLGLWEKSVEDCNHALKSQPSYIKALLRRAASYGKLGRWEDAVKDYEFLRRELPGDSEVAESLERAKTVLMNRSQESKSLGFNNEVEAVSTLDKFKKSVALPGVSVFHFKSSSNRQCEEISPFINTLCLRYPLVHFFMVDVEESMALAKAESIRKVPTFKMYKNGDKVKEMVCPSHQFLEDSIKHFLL

[4] = target: T4, GFP-TTL3ΔN3 (Arabidopsis thaliana) (UniProt Q9SIN1); assay: co-IP
T4 sequence: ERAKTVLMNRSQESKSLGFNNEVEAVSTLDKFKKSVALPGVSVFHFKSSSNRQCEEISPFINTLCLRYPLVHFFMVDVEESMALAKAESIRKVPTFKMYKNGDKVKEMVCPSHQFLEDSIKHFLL

[5] = target: T5, GFP-TTL3 full length (Arabidopsis thaliana) (UniProt Q9SIN1); assay: co-IP
T5 sequence: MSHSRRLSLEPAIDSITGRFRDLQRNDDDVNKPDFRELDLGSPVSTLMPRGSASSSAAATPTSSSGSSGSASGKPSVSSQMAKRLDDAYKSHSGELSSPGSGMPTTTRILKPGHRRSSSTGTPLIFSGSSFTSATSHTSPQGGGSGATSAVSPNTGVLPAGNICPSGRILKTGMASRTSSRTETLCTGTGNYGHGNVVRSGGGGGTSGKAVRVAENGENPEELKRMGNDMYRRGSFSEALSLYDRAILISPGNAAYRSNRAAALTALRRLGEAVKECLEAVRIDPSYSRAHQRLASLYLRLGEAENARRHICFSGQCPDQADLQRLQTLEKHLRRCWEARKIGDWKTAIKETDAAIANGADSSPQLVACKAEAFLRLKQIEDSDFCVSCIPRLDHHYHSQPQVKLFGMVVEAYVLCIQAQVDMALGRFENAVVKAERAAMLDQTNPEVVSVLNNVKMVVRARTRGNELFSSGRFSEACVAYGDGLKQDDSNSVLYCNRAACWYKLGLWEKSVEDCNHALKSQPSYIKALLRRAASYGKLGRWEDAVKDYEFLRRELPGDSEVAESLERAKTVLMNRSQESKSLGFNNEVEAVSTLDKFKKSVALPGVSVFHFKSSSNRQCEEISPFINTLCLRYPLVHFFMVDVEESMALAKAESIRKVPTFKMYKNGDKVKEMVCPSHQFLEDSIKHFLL

[6] = target: T6, TTL3-GFP (N. benthamiana) (Arabidopsis thaliana) (UniProt Q9SIN1); assay: co-IP
T6 sequence: T5 sequence

[7] = target: T7, TTL3ΔN2 (yeast two-hybrid fusion) (Arabidopsis thaliana) (UniProt Q9SIN1); assay: two-hybrid
T7 sequence: T1 sequence

[8] = target: T8, BIN2 (yeast two-hybrid fusion) (Arabidopsis thaliana) (UniProt Q39011); assay: two-hybrid
T8 sequence: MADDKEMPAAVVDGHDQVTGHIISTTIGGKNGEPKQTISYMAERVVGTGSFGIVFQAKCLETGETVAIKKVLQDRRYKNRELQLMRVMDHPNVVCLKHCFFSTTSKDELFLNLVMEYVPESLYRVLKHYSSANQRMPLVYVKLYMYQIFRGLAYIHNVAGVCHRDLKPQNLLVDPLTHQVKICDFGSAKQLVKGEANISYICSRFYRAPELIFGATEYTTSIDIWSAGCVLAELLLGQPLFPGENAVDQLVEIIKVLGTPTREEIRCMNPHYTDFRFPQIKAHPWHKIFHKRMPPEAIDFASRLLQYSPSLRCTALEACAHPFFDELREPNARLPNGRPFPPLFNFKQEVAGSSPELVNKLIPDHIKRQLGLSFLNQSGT

[9] = target: T9, TTL3ΔN1 (yeast two-hybrid fusion) (Arabidopsis thaliana) (UniProt Q9SIN1); assay: two-hybrid
T9 sequence: T3 sequence

[10] = target: T10, GST-TTL3ΔN1 (Arabidopsis thaliana) (UniProt Q9SIN1); assay: pull-down
T10 sequence: T3 sequence

[11] = target: T11, GST-TTL3ΔN3 (Arabidopsis thaliana) (UniProt Q9SIN1); assay: pull-down
T11 sequence: T4 sequence

[12] = target: BRI1-nYFP (Arabidopsis thaliana) (UniProt O22476); assay: split reporter
[13] = target: T12, TTL3-nYFP (Arabidopsis thaliana) (UniProt Q9SIN1); assay: split reporter
T12 sequence: T5 sequence

[14] = target: BRI1-cYFP (Arabidopsis thaliana) (UniProt O22476); assay: split reporter
[15] = target: T13, TTL3-cYFP (Arabidopsis thaliana) (UniProt Q9SIN1); assay: split reporter
T13 sequence: T5 sequence

Molecule: BSU1 (yeast two-hybrid fusion) (from UniProt Q9LR78 1-793) (enzyme)
binding [7]: no binding | binding [8]: binds | binding [9]: binds

B1: BAK1-cYFP (receptor, UniProt Q94F62 26-615)
chain: NAEGDALSALKNSLADPNKVLQSWDATLVTPCTWFHVTCNSDNSVTRVDLGNANLSGQLVMQLGQLPNLQYLELYSNNITGTIPEQLGNLTELVSLDLYLNNLSGPIPSTLGRLKKLRFLRLNNNSLSGEIPRSLTAVLTLQVLDLSNNPLTGDIPVNGSFSLFTPISFANTKLTPLPASPPPPISPTPPSPAGSNRITGAIAGGVAAGAALLFAVPAIALAWWRRKKPQDHFFDVPAEEDPEVHLGQLKRFSLRELQVASDNFSNKNILGRGGFGKVYKGRLADGTLVAVKRLKEERTQGGELQFQTEVEMISMAVHRNLLRLRGFCMTPTERLLVYPYMANGSVASCLRERPESQPPLDWPKRQRIALGSARGLAYLHDHCDPKIIHRDVKAANILLDEEFEAVVGDFGLAKLMDYKDTHVTTAVRGTIGHIAPEYLSTGKSSEKTDVFGYGVMLLELITGQRAFDLARLANDDDVMLLDWVKGLLKEKKLEALVDVDLQGNYKDEEVEQLIQVALLCTQSSPMERPKMSEVVRMLEGDGLAERWEEWQKEEMFRQDFNYPTHHPAVSGWIIGDSTSQIENEYPSGPR
binding [12]: binds weakly | binding [13]: no binding

B2: BAK1-nYFP (receptor, UniProt Q94F62 26-615)
chain: B1 chain
binding [14]: binds weakly | binding [15]: no binding

Now from value to molecule:

binding [1]: binds | binding [2]: binds | binding [3]: binds | binding [4]: no binding | binding [5]: binds | binding [6]: binds
Molecule: BRI1-HA (from UniProt O22476 24-1196) (receptor)

binding [10]: no binding | binding [11]: no binding
Molecule: MBP-BRI1cyt (from UniProt O22476 814-1196) (domain or fragment)
